Measured values as given in patent US11834401B2, “Treating and preventing diseases by modulating cell mechanics” (THE JOHNS HOPKINS UNIVERSITY, priority 2013, dated 2023).
Entries after “also recorded” stand apart in the source; their conditions may differ. At least one structure is not confirmed: it was looked up by name or label, or the drawing left a doubt.

Protein sequences, listed by entry. Tags and fused reporters are not part of them. Lines headed by an entry give the natural chain unless they say otherwise; changes in a name come on top.
UniProt P08799: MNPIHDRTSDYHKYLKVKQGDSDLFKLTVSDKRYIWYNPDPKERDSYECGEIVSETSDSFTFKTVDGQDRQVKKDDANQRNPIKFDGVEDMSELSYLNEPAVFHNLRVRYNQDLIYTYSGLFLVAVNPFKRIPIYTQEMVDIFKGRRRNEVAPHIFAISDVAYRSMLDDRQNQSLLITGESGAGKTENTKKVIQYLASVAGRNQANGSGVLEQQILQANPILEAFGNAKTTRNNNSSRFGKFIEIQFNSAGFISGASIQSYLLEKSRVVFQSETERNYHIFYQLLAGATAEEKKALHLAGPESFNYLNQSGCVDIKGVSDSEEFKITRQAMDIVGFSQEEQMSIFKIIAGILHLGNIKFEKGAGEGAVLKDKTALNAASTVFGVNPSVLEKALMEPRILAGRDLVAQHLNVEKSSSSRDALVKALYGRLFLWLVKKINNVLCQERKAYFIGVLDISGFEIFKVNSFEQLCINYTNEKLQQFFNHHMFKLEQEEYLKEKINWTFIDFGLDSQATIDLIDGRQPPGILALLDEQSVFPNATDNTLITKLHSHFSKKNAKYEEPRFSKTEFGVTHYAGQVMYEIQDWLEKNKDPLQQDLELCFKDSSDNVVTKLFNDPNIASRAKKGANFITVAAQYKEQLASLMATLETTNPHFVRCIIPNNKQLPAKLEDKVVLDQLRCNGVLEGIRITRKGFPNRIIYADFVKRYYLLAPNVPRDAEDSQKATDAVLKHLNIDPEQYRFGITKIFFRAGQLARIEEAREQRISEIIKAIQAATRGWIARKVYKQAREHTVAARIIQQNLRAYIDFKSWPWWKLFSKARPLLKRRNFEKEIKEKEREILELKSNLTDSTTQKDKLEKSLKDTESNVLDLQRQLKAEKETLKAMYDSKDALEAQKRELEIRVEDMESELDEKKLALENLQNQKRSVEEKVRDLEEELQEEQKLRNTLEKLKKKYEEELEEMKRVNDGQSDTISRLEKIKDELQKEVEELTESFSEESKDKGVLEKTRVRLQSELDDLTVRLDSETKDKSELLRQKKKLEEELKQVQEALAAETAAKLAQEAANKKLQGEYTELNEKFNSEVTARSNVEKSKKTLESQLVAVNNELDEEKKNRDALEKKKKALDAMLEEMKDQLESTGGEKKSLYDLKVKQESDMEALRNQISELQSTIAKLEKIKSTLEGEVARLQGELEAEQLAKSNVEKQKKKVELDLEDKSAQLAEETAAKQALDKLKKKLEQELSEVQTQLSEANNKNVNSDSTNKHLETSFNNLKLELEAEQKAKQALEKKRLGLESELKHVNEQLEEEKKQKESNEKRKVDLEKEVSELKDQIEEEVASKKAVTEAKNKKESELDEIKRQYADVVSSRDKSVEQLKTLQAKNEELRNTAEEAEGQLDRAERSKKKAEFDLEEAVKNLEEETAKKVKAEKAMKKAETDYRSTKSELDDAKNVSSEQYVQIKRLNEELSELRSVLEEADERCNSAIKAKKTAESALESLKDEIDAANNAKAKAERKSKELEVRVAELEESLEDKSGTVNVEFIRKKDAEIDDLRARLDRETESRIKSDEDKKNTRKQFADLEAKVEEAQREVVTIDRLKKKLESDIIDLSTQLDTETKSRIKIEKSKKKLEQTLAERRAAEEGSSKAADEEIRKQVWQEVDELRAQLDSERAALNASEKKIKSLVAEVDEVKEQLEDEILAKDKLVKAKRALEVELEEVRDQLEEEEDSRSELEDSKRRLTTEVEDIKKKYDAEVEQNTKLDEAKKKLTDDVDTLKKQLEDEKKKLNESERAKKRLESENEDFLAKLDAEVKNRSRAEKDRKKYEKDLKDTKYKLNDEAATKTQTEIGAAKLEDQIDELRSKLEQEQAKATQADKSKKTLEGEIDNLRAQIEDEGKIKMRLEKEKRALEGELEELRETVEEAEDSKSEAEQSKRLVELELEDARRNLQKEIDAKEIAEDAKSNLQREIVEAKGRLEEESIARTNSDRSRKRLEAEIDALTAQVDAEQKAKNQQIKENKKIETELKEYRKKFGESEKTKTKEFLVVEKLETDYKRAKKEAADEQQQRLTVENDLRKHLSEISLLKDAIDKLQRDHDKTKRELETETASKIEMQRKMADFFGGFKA

Tests used:
[1] = tested on: NLS-tdTomato expressing Dictyostelium cells; settings: BIOMOL pilot screen, 84 protein kinase inhibitors
Protocol: NLS-tdTomato expressing Dictyostelium cells were challenged with […] compounds from the ChemBridge Divert-SET library and imaged over three days. Raw data was segmented by CIMPAQ, a designed analytical platform, which rank ordered hits based on their cytokinesis or mitotic inhibitory activity, or lethality. Hits were confirmed through a dose-dependent secondary screening.
Ax3::NLS-tdTomato cells were plated on 384-well COP plates with a MicroFloSelect microplate dispenser (BioTek, Winooski, Vt.) at volumes of 80 μl with a cell concentration of 1000 cells/ml for the 24- and 48-hr time points and at the same volume with a cell concentration of 220 cells/ml for the 72-hr time point. Each plate contained four rows of untreated cells with 0.2% DMSO. For the remaining wells, […] of each small molecule maintained at the Johns Hopkins ChemCORE facility, was added, with a final DMSO concentration of 0.2%. […]
Raw image files from both the primary and secondary screening were processed through CIMPAQ (FIGS. 9E and 9F). The single wavelength fluorescence images were converted from 16-bit format to 8-bit format. […] The number of nuclei within each segmented cell was quantified to produce a histogram of nuclei per cell for each image (FIG. 9G). […]

[2] = target: T1, myosin II (Dictyostelium discoideum, UniProt P08799); experiment: Myosin II cortical localization by SIM, TIRF and confocal imaging; format: cell-based; parameters: expressed in transfected cells; host or cells: Dictyostelium discoideum myoII null cells rescued with GFP-myosin II
Protocol: Micropipette aspiration was used for cortical tension and creep response measurements. Confocal imaging was performed on a Zeiss 510 Meta with a 63× (numerical aperture [NA] 1.4) objective (Carl Zeiss, Jena, Germany). Epifluorescence and TIRF imaging was performed in a 22° C. temperature controlled room with an Olympus IX81 microscope using a 40× (NA 1.3) or 60× (NA 1.49) objective and a 1.4× optovar (Olympus, Center Valley, Pa.), as previously described. Image analysis was performed with ImageJ (rsb.info.nih.gov/ij).
Imaging conditions during primary screen are described above. All other image analysis was performed as previously described (Kee Y S, et al., 2012). Cells were transferred from Petri dishes (with 0.1% DMSO incubation in growth media of 4 hrs) to imaging chambers and allowed to adhere for 20 min in growth media with 0.1% DMSO. After the cells adhered, the growth media was replaced with 2-(N-morpholino)ethanesulfonic acid (MES) starvation buffer (50 mM MES, pH 6.8, 2 mM MgCl2, 0.2 mM CaCl2) with 0.1% DMS. Confocal imaging was performed on aZeiss 510 Meta with a 63× (numerical aperture [NA] 1.4) objective (Carl Zeiss, Jena, Germany). […] Many data sets were independently analyzed by multiple investigators.

[3] = Degradation/stability of carbamate-7 in solvent (TLC, HPLC); format: physicochemical
Protocol: Upon standing in methanol, the product obtained above degraded within 2.5 hr, as determined by TLC analysis. Degradation appeared more rapid in DMSO, the solvent used to generate stock solutions for biological evaluation. Thus, carbamate-7 obtained either by chemical synthesis or commercially from ChemBridge was dissolved in DMSO (1 mg/mL), and a time course to study its degradation was initiated immediately upon solvation. To stop the degradation reaction such that the product distribution could be captured at early time points, aliquots (40 μL) were rapidly frozen into Eppendorf tubes incubating on dry ice. HPLC analysis on a Beckman Gold Nouveau HPLC System was performed on each sample immediately upon thawing. Carbamate-7 (5180622) degradation products were eluted at 3 mL/min from a Grace Alltima C18 column (length=53 mm, ID=7 mm, particle size=3 μM) over a linear gradient (5:95 acetonitrile/100 mM NH4OAc (pH 6.8) to 100% 100 mM NH4OAc (pH 6.8) over 15 min).
Comparison of the urea product to authentic N,N′-Bis(3,4-dichlorophenyl) urea was performed using a linear gradient (5:95 acetonitrile/100 mM NH4OAc (pH 6.8) to 100% 100 mM NH4OAc (pH 6.8) over 5 min). […] Confirmation of the urea was further confirmed via characteristic fragmentation patterns determined using product ion (MS-MS) analysis monitoring in negative ion mode (FIG. 11C).

[4] = tested on: racE; experiment: mCherry-racE localization by epifluorescence/SIM; format: cell-based, Dictyostelium discoideum; settings: mCherry-racE rescued cell line
[5] = tested on: wild-type, kif12 null, myoII null and racE null Dictyostelium cell lines; experiment: Chemical-genetic epistasis (synthetic lethality), nuclei/cell in mutant strains; format: cell-based, Dictyostelium discoideum
[6] = target: T1, myosin II; experiment: Dictyostelium sedimentation assay (Triton-insoluble myosin II); format: cell-based; parameters: endogenous in cells; settings: 700-nM, n=3

Cc1cc(O)c2c(=O)c3c(O)cc(O)c4c5c(O)cc(O)c6c(=O)c7c(O)cc(C)c8c1c2c(c34)c(c78)c65 [Hypericin]
CIMPAQ hit category, kinase inhibitor collection [1]: Lethal at 5 μM

CC(=O)c1ccc(OC(=O)Nc2ccc(Cl)c(Cl)c2)cc1 [carbamate-7, 4-acetylphenyl-(3,4-dichlorophenyl) carbamate]
cortical GFP-myosin II bipolar thick filaments (TIRF) ([2]; increasing amounts of compound): at the cortex in the 500 μM range; also recorded: increase of cortical GFP-myosin II | myosin II bipolar thick filaments / GFP-myosin II cortical accumulation (SIM) ([2]; myoII:GFP myoII cells, 500-nM): significant increase in GFPmyosin II cortical accumulation; also recorded: increase in the amount and variability of myosin II bipolar thick filaments | detection of intact carbamate ([3]; commercial stock solutions): No 4-acetylphenyl(3,4-dichlorophenyl) carbamate could be detected | time to complete conversion to 3,4-DCA and 4-HAP ([3]; in DMSO, HPLC): ≤ 15 min | racE localization [4]: no change in racE localization | cytokinesis inhibition ([5]; kinesin 6 (kif12) null cell line): occurred as in WT | binucleation or multi-nucleation relative to untreated controls ([5]; myoII null cell line): did not increase binucleation or multi-nucleation | binucleation or multi-nucleation relative to untreated controls ([5]; racE null cell line): did not increase binucleation or multi-nucleation | average number of nuclei/cell, untreated vs treated ([5]; wild-type strain): statistically significant difference | non-monomeric myosin II over untreated cells [6]: increase of non-monomeric myosin II
